Data as given in US20070072246A1, “Cell-based assays for determining drug action” (priority 2003, published 2007).

System: PBMC and endothelial cell co-culture
Assay: SAg system: PBMC and endothelial cell co-culture stimulated with superantigen
Format: cell-based, human
Conditions: 24 hr SAg stimulation; non-toxic concentrations

Compound: O=[N+]([O-])c1ccc(-c2nc(-c3ccncc3)c(-c3ccc(F)cc3)[nH]2)cc1 [PD169316]
- activity in the SAg system: retain activity
